Taken from: PubChem BioAssay AID1259308 (NCATS, 2017)

- Test: 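Candidate targets for better recombinant protein yield in mammalian cells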 (primary screen)
- System: human HEK293 embryonic kidney cells stably expressing firefly luciferase (HEK-CMV-Luc2-Hygro)
- Reagent: single siRNA against human genes, 0.8 pmol siRNA per well
- Duration: 72 h
- Measurement: 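Luciferase light (ONE-Glo) measured on one replicate plate set and viability (CellTiter-Glo) on the other, scaled to a negative control siRNA, with robust z-scores and luciferase per cell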
- Scale: total luciferase, z-score: higher = more reporter protein produced
- Rule for the call: 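An siRNA counts as active if its total luciferase robust z-score exceeds 3; genes with two or more such siRNAs out of three were retested with fresh siRNAs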
- Meaning of the calls: active = raised luciferase; inactive = no rise
Here is one part, drawn at random, of about 59,000 deposited reagents. About 1,510 of all reagents (2.6%) count as active. 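Calls use total luciferase alone and ignore viability, so some active siRNAs may act by altering cell number.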 A number with no mark means an inactive call. The numbers tell different reagents against one gene apart. Further read-outs or replicates are left out here.

no.	gene	siRNA no.	total luciferase, z-score
1	CRYBA4 (GeneID 1413)	1	0.524
2	CRYBA4 (GeneID 1413)	2	-0.0701
3	CRYBA4 (GeneID 1413)	3	-0.194
4	GLB1L (GeneID 79411)	1	-1.2
5	GLB1L (GeneID 79411)	2	-0.308
6	GLB1L (GeneID 79411)	3	-0.164
7	PAAF1 (GeneID 80227)	1	0.358
8	PAAF1 (GeneID 80227)	2	0.0333
9	PAAF1 (GeneID 80227)	3	-0.584
10	ZNF516 (GeneID 9658)	1	-1.88
11	ZNF516 (GeneID 9658)	2	-0.797
12	ZNF516 (GeneID 9658)	3	1.11
13	BCL11A (GeneID 53335)	1	0.514
14	BCL11A (GeneID 53335)	2	0.432
15	BCL11A (GeneID 53335)	3	0.0532
16	ANKRD42 (GeneID 338699)	1	-1.66
17	ANKRD42 (GeneID 338699)	2	-0.716
18	ANKRD42 (GeneID 338699)	3	-0.564
19	TSSK6 (GeneID 83983)	1	-0.474
20	TSSK6 (GeneID 83983)	2	-0.767
21	TSSK6 (GeneID 83983)	3	-0.265
22	CTAGE6 (GeneID 340307)	1	-2.37
23	CTAGE6 (GeneID 340307)	2	0.55
24	CTAGE6 (GeneID 340307)	3	1.33
25	YAP1 (GeneID 10413)	1	-0.547
26	YAP1 (GeneID 10413)	2	0.875
27	YAP1 (GeneID 10413)	3	0.235
28	SULT1A1 (GeneID 6817)	1	0.342
29	SULT1A1 (GeneID 6817)	2	0.623
30	SULT1A1 (GeneID 6817)	3	4.76 (active)
31	TMA7 (GeneID 51372)	1	0.709
32	TMA7 (GeneID 51372)	2	-1.09
33	TMA7 (GeneID 51372)	3	-0.881
34	ARRB2 (GeneID 409)	1	3 (active)
35	ARRB2 (GeneID 409)	2	1.38
36	ARRB2 (GeneID 409)	3	-0.829
37	EBP (GeneID 10682)	1	-1.05
38	EBP (GeneID 10682)	2	0.0876
39	EBP (GeneID 10682)	3	-0.903
40	STIMATE (GeneID 375346)	1	-0.0707
41	STIMATE (GeneID 375346)	2	0.254
42	STIMATE (GeneID 375346)	3	-0.448
43	SREBF1 (GeneID 6720)	1	0.936
44	SREBF1 (GeneID 6720)	2	0.907
45	SREBF1 (GeneID 6720)	3	5.32 (active)
46	RPA2 (GeneID 6118)	1	1.16
47	RPA2 (GeneID 6118)	2	-0.932
48	RPA2 (GeneID 6118)	3	-0.0781
49	BIRC5 (GeneID 332)	1	-0.911
50	BIRC5 (GeneID 332)	2	-1.88
51	BIRC5 (GeneID 332)	3	-1.68
52	GGTLC1 (GeneID 92086)	1	0.0559
53	GGTLC1 (GeneID 92086)	2	-0.875
54	GGTLC1 (GeneID 92086)	3	-1.65
55	ZNF264 (GeneID 9422)	1	-1.03
56	ZNF264 (GeneID 9422)	2	-2
57	ZNF264 (GeneID 9422)	3	-0.12

In a second layout: entries from further up.
{"gene":"TSSK6 (GeneID 83983)","siRNA no.":1,"total luciferase, z-score":-0.474}
{"gene":"TSSK6 (GeneID 83983)","siRNA no.":2,"total luciferase, z-score":-0.767}
{"gene":"TSSK6 (GeneID 83983)","siRNA no.":3,"total luciferase, z-score":-0.265}
{"gene":"CTAGE6 (GeneID 340307)","siRNA no.":1,"total luciferase, z-score":-2.37}
{"gene":"CTAGE6 (GeneID 340307)","siRNA no.":2,"total luciferase, z-score":0.55}
{"gene":"CTAGE6 (GeneID 340307)","siRNA no.":3,"total luciferase, z-score":1.33}
{"gene":"YAP1 (GeneID 10413)","siRNA no.":1,"total luciferase, z-score":-0.547}
{"gene":"YAP1 (GeneID 10413)","siRNA no.":2,"total luciferase, z-score":0.875}
